For assay [1], the target named is HA-tagged EED, wild type (human) (UniProt O75530). The experiment in a line: co-IP.
Assay [2] addresses JMJD3 JmjC domain (in vitro pull-downs) (UniProt O15054). As to the kind of experiment: pull-down.
Assay [3] concerns the target HA-tagged JMJD3 (UniProt O15054). As to the kind of experiment: co-IP.
The target of assay [4] is HA-tagged EED WD40 domain mutant W364A (human) (UniProt O75530). As to the kind of experiment: co-IP.
The target of assay [5] is HA-tagged UTX (UniProt O15550). The experiment in a line: co-IP.

By UniProt entry, the sequences of proteins in these tests, tags left out. Where a name states a change or a piece, a line headed by the entry shows the natural chain unless it says otherwise. Residues count along the entry.
UniProt O75530, whole entry: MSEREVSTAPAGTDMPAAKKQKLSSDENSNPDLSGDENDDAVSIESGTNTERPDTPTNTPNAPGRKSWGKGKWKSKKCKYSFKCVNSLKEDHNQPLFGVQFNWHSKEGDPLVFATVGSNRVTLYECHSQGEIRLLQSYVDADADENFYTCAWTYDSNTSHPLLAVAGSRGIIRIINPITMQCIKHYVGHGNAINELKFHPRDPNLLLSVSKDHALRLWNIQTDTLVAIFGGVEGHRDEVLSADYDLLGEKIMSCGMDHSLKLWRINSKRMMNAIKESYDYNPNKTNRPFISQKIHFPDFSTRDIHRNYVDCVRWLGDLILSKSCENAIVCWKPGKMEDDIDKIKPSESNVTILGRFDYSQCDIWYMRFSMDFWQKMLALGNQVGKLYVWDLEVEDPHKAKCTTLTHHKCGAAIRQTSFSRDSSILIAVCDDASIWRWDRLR
UniProt O15054, 1339-1502: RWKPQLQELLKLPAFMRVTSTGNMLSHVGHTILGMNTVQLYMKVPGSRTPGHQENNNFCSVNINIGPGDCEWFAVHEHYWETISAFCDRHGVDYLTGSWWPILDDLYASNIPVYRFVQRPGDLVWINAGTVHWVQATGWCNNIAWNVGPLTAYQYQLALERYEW
UniProt O15054, whole entry: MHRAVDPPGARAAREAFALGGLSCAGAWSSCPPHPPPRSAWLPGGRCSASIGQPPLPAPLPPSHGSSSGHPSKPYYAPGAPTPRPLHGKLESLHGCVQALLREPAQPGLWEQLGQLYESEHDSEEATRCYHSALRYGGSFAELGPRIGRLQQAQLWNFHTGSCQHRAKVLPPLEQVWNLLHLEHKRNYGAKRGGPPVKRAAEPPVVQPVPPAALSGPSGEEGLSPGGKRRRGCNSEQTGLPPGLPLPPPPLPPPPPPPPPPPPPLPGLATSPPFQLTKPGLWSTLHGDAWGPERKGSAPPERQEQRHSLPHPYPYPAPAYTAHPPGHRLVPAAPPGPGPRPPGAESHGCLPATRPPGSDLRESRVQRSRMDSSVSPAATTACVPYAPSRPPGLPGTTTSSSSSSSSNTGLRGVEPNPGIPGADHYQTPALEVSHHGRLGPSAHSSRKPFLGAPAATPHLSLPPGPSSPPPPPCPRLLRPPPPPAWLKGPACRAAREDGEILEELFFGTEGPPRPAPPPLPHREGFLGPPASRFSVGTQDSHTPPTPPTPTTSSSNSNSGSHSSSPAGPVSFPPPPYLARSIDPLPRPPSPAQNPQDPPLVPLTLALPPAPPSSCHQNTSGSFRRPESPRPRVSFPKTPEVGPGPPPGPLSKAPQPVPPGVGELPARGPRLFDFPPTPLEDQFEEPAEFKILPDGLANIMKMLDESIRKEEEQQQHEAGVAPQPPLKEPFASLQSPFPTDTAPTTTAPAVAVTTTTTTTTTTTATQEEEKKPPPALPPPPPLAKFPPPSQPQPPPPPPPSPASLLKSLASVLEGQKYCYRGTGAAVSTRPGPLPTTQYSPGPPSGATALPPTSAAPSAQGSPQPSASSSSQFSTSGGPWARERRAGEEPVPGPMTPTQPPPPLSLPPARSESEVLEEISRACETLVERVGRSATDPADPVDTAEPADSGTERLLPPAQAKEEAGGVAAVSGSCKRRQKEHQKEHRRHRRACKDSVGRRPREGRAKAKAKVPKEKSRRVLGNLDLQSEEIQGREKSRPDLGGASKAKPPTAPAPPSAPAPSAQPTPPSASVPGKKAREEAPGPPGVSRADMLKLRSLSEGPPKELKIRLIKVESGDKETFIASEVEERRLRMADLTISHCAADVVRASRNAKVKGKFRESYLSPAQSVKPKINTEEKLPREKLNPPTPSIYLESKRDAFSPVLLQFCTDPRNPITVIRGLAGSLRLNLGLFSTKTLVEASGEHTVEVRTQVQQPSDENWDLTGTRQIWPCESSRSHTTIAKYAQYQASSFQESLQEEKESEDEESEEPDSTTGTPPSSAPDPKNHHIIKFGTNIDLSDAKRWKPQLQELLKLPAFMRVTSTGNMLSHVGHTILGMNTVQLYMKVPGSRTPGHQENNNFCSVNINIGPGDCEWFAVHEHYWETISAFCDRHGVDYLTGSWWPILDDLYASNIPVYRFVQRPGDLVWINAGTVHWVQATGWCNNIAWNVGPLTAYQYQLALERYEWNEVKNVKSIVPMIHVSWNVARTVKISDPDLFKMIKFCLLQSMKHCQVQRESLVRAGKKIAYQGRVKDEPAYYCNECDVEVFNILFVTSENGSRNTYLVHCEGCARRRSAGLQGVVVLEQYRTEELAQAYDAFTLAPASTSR
UniProt O15550, whole entry: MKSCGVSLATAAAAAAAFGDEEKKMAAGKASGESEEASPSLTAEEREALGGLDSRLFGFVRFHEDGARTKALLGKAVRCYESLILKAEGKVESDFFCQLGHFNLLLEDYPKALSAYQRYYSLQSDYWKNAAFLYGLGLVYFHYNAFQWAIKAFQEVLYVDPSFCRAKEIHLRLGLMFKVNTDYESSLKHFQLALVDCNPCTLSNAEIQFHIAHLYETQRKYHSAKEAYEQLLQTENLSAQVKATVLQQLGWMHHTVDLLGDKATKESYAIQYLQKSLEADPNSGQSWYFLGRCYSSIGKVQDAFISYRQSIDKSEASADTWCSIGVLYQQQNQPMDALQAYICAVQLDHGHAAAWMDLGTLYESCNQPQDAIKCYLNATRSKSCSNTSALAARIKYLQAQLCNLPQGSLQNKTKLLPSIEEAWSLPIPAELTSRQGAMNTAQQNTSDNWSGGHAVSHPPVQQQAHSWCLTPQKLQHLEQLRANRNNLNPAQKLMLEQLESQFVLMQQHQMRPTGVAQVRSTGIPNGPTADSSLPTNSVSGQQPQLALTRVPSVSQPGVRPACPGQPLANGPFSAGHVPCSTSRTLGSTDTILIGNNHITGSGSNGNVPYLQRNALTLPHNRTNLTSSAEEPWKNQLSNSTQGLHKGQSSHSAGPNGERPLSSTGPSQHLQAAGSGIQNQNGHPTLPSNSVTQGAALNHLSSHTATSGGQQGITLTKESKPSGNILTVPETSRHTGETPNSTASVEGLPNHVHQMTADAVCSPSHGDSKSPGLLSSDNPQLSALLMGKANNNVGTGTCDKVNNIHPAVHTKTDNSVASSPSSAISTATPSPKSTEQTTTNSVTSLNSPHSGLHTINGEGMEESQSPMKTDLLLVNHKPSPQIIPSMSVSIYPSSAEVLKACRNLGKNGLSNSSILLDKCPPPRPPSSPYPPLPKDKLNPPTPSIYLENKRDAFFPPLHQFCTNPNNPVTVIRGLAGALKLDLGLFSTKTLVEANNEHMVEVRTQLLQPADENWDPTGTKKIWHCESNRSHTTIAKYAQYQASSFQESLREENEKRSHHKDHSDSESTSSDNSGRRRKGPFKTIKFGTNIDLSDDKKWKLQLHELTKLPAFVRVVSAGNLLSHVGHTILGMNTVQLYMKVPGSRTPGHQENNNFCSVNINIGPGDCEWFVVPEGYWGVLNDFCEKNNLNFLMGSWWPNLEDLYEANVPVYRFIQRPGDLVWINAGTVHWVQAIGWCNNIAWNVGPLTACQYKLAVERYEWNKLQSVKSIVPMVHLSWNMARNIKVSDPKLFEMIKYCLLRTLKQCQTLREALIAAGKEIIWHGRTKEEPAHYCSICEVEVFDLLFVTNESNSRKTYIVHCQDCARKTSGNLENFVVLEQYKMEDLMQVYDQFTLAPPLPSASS

Where a chain is given by its changes, count along the chain named. Names may count otherwise. No constants are given. Whether binding was seen depends on the method and setting. For some of these results: Binding seen in cells or lysates may run through a third protein. Some binding calls cover weakened binding; strength is not graded here. Tags and fused reporters may be left off the sequences shown.

B1: 3xFlag-tagged NOP16 K29A (protein, UniProt Q9Y3C1 1-178)
chain: MPKAKGKTRRQKFGYSVNRKRLNRNARRAAAPRIECSHIRHAWDHAKSVRQNLAEMGLAVDPNRAVPLRKRKVKAMEVDIEERPKELVRKPYVLNDLEAEASLPEKKGNTLSRDLIDYVRYMVENHGEDYKAMARDEKNYYQDTPKQIRSKINVYKRFYPAEWQDFLDSLQKRKMEVE
With B1, the binding entry in assay [1] is given as “binds”.

B2: 3xFlag-tagged NOP16 K106A and K107A double mutant (protein, UniProt Q9Y3C1 1-178)
chain: B1 chain with A29K, K106A, K107A
For the molecule B2, in assay [1], the binding result is “binds”.

B3: 6xHis-tagged NOP16 (protein, UniProt Q9Y3C1 1-178)
chain: B1 chain with A29K
Turning to B3, the binding result in assay [2] is reported as “binds”.

B4: 3xFLAG-tagged NOP16 (Nucleolar protein 16), wild type (protein, UniProt Q9Y3C1 1-178)
chain: B1 chain with A29K
With B4, the binding result in assay [3] is “binds”; in assay [4] it was “no binding”; in assay [1] it was “binds”; in assay [5] it was “no binding”.

(Values after paper doi:10.1101/2023.06.13.544862.)
